Data on 22 molecules can be found in US20060257938A1, “Method of screening for drugs that block ligand binding to a lipid binding protein” (priority 2005, published 2006).

A short description of this series: Baseline fluorescence ratio Ro of probe in absence of analyte. The following applies: baseline fluorescence ratio of probe.

B1: 106T, 72A (protein, listed as Rattus norvegicus)
chain: AFDGTWKVDRNENYEKFMEKMGINVVKRKLGAHDNLKLTITQEGNKFTVKESSNFRNIDVVFELGVDFAYSAADGTELTGTWTMEGNKLVGKFKRVDNGKELIAVTEISGNELIQTYTYEGVEAKRIFKKE
modifications: PEPTIDE (1)...(131) wild-type rat intestinal fatty acid binding protein
As to B1, the Ro (no fatty acid) amounted to 0.228.

B2: 72T 73Q 74S (protein, listed as Rattus norvegicus)
chain: AFDGTWKVDRNENYEKFMEKMGINVVKRKLGAHDNLKLTITQEGNKFTVKESSNFRNIDVVFELGVDFAYSTQSGTELTGTWTMEGNKLVGKFKRVDNGKELIAVREISGNELIQTYTYEGVEAKRIFKKE
modifications: PEPTIDE (1)...(131) wild-type rat intestinal fatty acid binding protein
With B2, the Ro (no fatty acid) came out at 0.283.

B3: 11Y, 72A (protein, listed as Rattus norvegicus)
chain: AFDGTWKVDRYENYEKFMEKMGINVVKRKLGAHDNLKLTITQEGNKFTVKESSNFRNIDVVFELGVDFAYSAADGTELTGTWTMEGNKLVGKFKRVDNGKELIAVREISGNELIQTYTYEGVEAKRIFKKE
modifications: PEPTIDE (1)...(131) wild-type rat intestinal fatty acid binding protein
As to B3, the Ro was found to be 0.309. The Ro (no fatty acid) was 0.309.

B4: 72H 73Y 74G (protein, listed as Rattus norvegicus)
chain: AFDGTWKVDRNENYEKFMEKMGINVVKRKLGAHDNLKLTITQEGNKFTVKESSNFRNIDVVFELGVDFAYSHYGGTELTGTWTMEGNKLVGKFKRVDNGKELIAVREISGNELIQTYTYEGVEAKRIFKKE
modifications: PEPTIDE (1)...(131) wild-type rat intestinal fatty acid binding protein
With B4, the Ro (no fatty acid) stood at 0.205.

B5: 11I, 72A (protein, listed as Rattus norvegicus)
chain: AFDGTWKVDRIENYEKFMEKMGINVVKRKLGAHDNLKLTITQEGNKFTVKESSNFRNIDVVFELGVDFAYSAADGTELTGTWTMEGNKLVGKFKRVDNGKELIAVREISGNELIQTYTYEGVEAKRIFKKE
modifications: PEPTIDE (1)...(131) wild-type rat intestinal fatty acid binding protein
For B5, the Ro (no fatty acid) is 0.382.

B6: 14L 72A (protein, listed as Rattus norvegicus)
chain: AFDGTWKVDRNENLEKFMEKMGINVVKRKLGAHDNLKLTITQEGNKFTVKESSNFRNIDVVFELGVDFAYSAADGTELTGTWTMEGNKLVGKFKRVDNGKELIAVREISGNELIQTYTYEGVEAKRIFKKE
modifications: PEPTIDE (1)...(131) wild-type rat intestinal fatty acid binding protein
As to B6, the Ro was 0.241. For the same molecule, where the note is “no fatty acid”, the Ro came to 0.241.

B7: 14L 18L 73L 117A 72A (protein, listed as Rattus norvegicus)
chain: AFDGTWKVDRNENLEKFLEKMGINVVKRKLGAHDNLKLTITQEGNKFTVKESSNFRNIDVVFELGVDFAYSALDGTELTGTWTMEGNKLVGKFKRVDNGKELIAVREISGNELIQTATYEGVEAKRIFKKE
modifications: PEPTIDE (1)...(131) wild-type rat intestinal fatty acid binding protein
With B7, the Ro came out at 0.372. In addition, where the note is “no fatty acid”, the Ro stood at 0.372.

B8: 14I 72A (protein, listed as Rattus norvegicus)
chain: AFDGTWKVDRNENIEKFMEKMGINVVKRKLGAHDNLKLTITQEGNKFTVKESSNFRNIDVVFELGVDFAYSAADGTELTGTWTMEGNKLVGKFKRVDNGKELIAVREISGNELIQTYTYEGVEAKRIFKKE
modifications: PEPTIDE (1)...(131) wild-type rat intestinal fatty acid binding protein
Turning to B8, the Ro (no fatty acid) came to 0.345.

B9: 14I 38I 72V (protein, listed as Rattus norvegicus)
chain: AFDGTWKVDRNENIEKFMEKMGINVVKRKLGAHDNLKITITQEGNKFTVKESSNFRNIDVVFELGVDFAYSVADGTELTGTWTMEGNKLVGKFKRVDNGKELIAVREISGNELIQTYTYEGVEAKRIFKKE
modifications: PEPTIDE (1)...(131) wild-type rat intestinal fatty acid binding protein
Turning to B9, the Ro (no fatty acid) turned out to be 0.205.

B10: 55Y, 72A (protein, listed as Rattus norvegicus)
chain: AFDGTWKVDRNENYEKFMEKMGINVVKRKLGAHDNLKLTITQEGNKFTVKESSNYRNIDVVFELGVDFAYSAADGTELTGTWTMEGNKLVGKFKRVDNGKELIAVREISGNELIQTYTYEGVEAKRIFKKE
modifications: PEPTIDE (1)...(131) wild-type rat intestinal fatty acid binding protein
Consider B10, for which the Ro is 0.124. For the same molecule, the Ro (no fatty acid) is 0.124.

B11: 14I 72G 117V (protein, listed as Rattus norvegicus)
chain: AFDGTWKVDRNENIEKFMEKMGINVVKRKLGAHDNLKLTITQEGNKFTVKESSNFRNIDVVFELGVDFAYSGADGTELTGTWTMEGNKLVGKFKRVDNGKELIAVREISGNELIQTVTYEGVEAKRIFKKE
modifications: PEPTIDE (1)...(131) wild-type rat intestinal fatty acid binding protein
B11: the Ro came to 0.312. Under “no fatty acid”, the Ro is reported as 0.312.

B12: 106L, 72A (protein, listed as Rattus norvegicus)
chain: AFDGTWKVDRNENYEKFMEKMGINVVKRKLGAHDNLKLTITQEGNKFTVKESSNFRNIDVVFELGVDFAYSAADGTELTGTWTMEGNKLVGKFKRVDNGKELIAVLEISGNELIQTYTYEGVEAKRIFKKE
modifications: PEPTIDE (1)...(131) wild-type rat intestinal fatty acid binding protein
For B12, the Ro (no fatty acid) came out at 0.299.

B13: 72G 74F (protein, listed as Rattus norvegicus)
chain: AFDGTWKVDRNENYEKFMEKMGINVVKRKLGAHDNLKLTITQEGNKFTVKESSNFRNIDVVFELGVDFAYSGAFGTELTGTWTMEGNKLVGKFKRVDNGKELIAVREISGNELIQTYTYEGVEAKRIFKKE
modifications: PEPTIDE (1)...(131) wild-type rat intestinal fatty acid binding protein
With B13, for the setting “no fatty acid”, the Ro is 0.467.

B14: 18I 31L 73L 72A (protein, listed as Rattus norvegicus)
chain: AFDGTWKVDRNENYEKFIEKMGINVVKRKLLAHDNLKLTITQEGNKFTVKESSNFRNIDVVFELGVDFAYSALDGTELTGTWTMEGNKLVGKFKRVDNGKELIAVREISGNELIQTYTYEGVEAKRIFKKE
modifications: PEPTIDE (1)...(131) wild-type rat intestinal fatty acid binding protein
For the molecule B14, the Ro (no fatty acid) worked out at 0.380.

B15: 14L 18T 31E 73G 117G 72A (protein, listed as Rattus norvegicus)
chain: AFDGTWKVDRNENLEKFTEKMGINVVKRKLEAHDNLKLTITQEGNKFTVKESSNFRNIDVVFELGVDFAYSAGDGTELTGTWTMEGNKLVGKFKRVDNGKELIAVREISGNELIQTGTYEGVEAKRIFKKE
modifications: PEPTIDE (1)...(131) wild-type rat intestinal fatty acid binding protein
In the case of B15, the Ro came to 0.395.

B16: 106D, 72A (protein, listed as Rattus norvegicus)
chain: AFDGTWKVDRNENYEKFMEKMGINVVKRKLGAHDNLKLTITQEGNKFTVKESSNFRNIDVVFELGVDFAYSAADGTELTGTWTMEGNKLVGKFKRVDNGKELIAVDEISGNELIQTYTYEGVEAKRIFKKE
modifications: PEPTIDE (1)...(131) wild-type rat intestinal fatty acid binding protein
In the case of B16, where the note is “no fatty acid”, the Ro came out at 0.240.

B17: 14L 38M 72A 117F (protein, listed as Rattus norvegicus)
chain: AFDGTWKVDRNENLEKFMEKMGINVVKRKLGAHDNLKMTITQEGNKFTVKESSNFRNIDVVFELGVDFAYSAADGTELTGTWTMEGNKLVGKFKRVDNGKELIAVREISGNELIQTFTYEGVEAKRIFKKE
modifications: PEPTIDE (1)...(131) wild-type rat intestinal fatty acid binding protein
Take B17: the Ro (no fatty acid) amounted to 0.213.

B18: 73N 72A 74F (protein, listed as Rattus norvegicus)
chain: AFDGTWKVDRNENYEKFMEKMGINVVKRKLGAHDNLKLTITQEGNKFTVKESSNFRNIDVVFELGVDFAYSANFGTELTGTWTMEGNKLVGKFKRVDNGKELIAVREISGNELIQTYTYEGVEAKRIFKKE
modifications: PEPTIDE (1)...(131) wild-type rat intestinal fatty acid binding protein
As to B18, the Ro (no fatty acid) was 0.448.

B19: 14L 72G 117V (protein, listed as Rattus norvegicus)
chain: AFDGTWKVDRNENLEKFMEKMGINVVKRKLGAHDNLKLTITQEGNKFTVKESSNFRNIDVVFELGVDFAYSGADGTELTGTWTMEGNKLVGKFKRVDNGKELIAVREISGNELIQTVTYEGVEAKRIFKKE
modifications: PEPTIDE (1)...(131) wild-type rat intestinal fatty acid binding protein
B19: the Ro was 0.280. Also, for the setting “no fatty acid”, the Ro is on record as 0.280.

B20: 62N 106F 117A 72A (protein, listed as Rattus norvegicus)
chain: AFDGTWKVDRNENYEKFMEKMGINVVKRKLGAHDNLKLTITQEGNKFTVKESSNFRNIDVVNELGVDFAYSAADGTELTGTWTMEGNKLVGKFKRVDNGKELIAVFEISGNELIQTATYEGVEAKRIFKKE
modifications: PEPTIDE (1)...(131) wild-type rat intestinal fatty acid binding protein
On to B20, for which the Ro is on record as 0.224. In addition, for the setting “no fatty acid”, the Ro turned out to be 0.224.

B21: 14L 18S 31L 73V 117A 72A (protein, listed as Rattus norvegicus)
chain: AFDGTWKVDRNENLEKFSEKMGINVVKRKLLAHDNLKLTITQEGNKFTVKESSNFRNIDVVFELGVDFAYSAVDGTELTGTWTMEGNKLVGKFKRVDNGKELIAVREISGNELIQTATYEGVEAKRIFKKE
modifications: PEPTIDE (1)...(131) wild-type rat intestinal fatty acid binding protein
B21: the Ro is 0.486. For the same molecule, under “no fatty acid”, the Ro came out at 0.486.

B22: 49N, 72A (protein, listed as Rattus norvegicus)
chain: AFDGTWKVDRNENYEKFMEKMGINVVKRKLGAHDNLKLTITQEGNKFTNKESSNFRNIDVVFELGVDFAYSAADGTELTGTWTMEGNKLVGKFKRVDNGKELIAVREISGNELIQTYTYEGVEAKRIFKKE
modifications: PEPTIDE (1)...(131) wild-type rat intestinal fatty acid binding protein
As to B22, the Ro is 0.345.
